Data reported in publication PMC9852244.
Results are given in words; binding and its absence hold for the method and conditions named. In cells and extracts the contact can be indirect. Here binding means that the protein was enriched with, or labelled near, the bait; the list need not be complete. Where a sequence is shown, tags or fusion partners need not be part of it.

Molecular target: T1, FLAG-tagged mouse RIPK1 (doxycycline-inducible) (mouse) (UniProt Q60855)
T1 sequence: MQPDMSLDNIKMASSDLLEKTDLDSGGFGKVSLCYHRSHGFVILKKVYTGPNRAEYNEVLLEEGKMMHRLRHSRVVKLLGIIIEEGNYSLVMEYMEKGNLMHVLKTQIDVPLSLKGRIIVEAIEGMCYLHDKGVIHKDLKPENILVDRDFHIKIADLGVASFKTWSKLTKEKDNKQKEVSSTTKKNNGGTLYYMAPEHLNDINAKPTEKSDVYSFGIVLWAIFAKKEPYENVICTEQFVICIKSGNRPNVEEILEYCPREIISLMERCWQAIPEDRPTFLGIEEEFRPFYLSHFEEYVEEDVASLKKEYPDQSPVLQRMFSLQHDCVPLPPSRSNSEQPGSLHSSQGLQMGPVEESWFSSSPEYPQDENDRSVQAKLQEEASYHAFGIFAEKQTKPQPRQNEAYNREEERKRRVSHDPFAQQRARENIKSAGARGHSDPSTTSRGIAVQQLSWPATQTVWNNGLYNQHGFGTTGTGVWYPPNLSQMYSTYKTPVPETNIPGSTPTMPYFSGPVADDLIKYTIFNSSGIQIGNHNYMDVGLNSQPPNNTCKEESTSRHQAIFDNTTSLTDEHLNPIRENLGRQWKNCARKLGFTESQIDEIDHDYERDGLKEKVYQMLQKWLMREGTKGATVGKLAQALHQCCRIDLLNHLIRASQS
Assay: affinity purification with mass spectrometry; SILAC; FLAG-RIPK1 complexes enriched on ANTI-FLAG M2 gel (3 h, 4 °C) from two clonal Dox-induced MEF lines, DMSO control (light) versus TNF + SM + zVAD 2 h (medium); beads pooled, FLAG peptide elution, LC-MS/MS

binding: binds
B1: RIOK1 (protein, UniProt Q922Q2 1-567)
chain: MDCSLDRMASVVPGQFDDADSSDSENKELQPIHAEDGGVLLKSLQNAAAEVKGDAETDEEDDYDDDDDWYLDDATGKLTKGCTWNGGSNYQANRQTSNYNSAKMSTPIDKSLRKFENKINLNKLNVTDSVTNKVTVKLRQKEAESYRIKDKADRATVEQVLDPRTRMILFKLLHKDHISEIHGCISTGKEANVYYASTPSGESRAIKIYKTSILMFKDRDKYVTGEFRFRRGYCKGNPRKMVRTWAEKEMRNLCRLKTANIPCPEPIRLRSHVLLMGFIGKDDMPAPLLKNVQLSESKARELYLQVIQYMRKMYQDARLVHADLSEFNMLYHGGDVYIIDVSQSVEHDHPHALEFLRKDCTNVNDFFSKHAVAVMTVRELFDFVTDPSITADNMDAYLEKAMEIASQRTKEEKTSQDHVDEEVFKQAYIPRTLNEVKNYERDVDIMMRLKEEDMALNTQQDNILYQTVMGLKKDLSGVQKVPALLESEVKEETCFGSDDAGGSECSDTVSEEQEDQAGCRNHIADPDIDKKERKKMVKEAQREKRKNKIPKHVKKRKEKTAKAKKGK
